Source: PubChem BioAssay AID493014 (National Center for Advancing Translational Sciences (NCATS), 2011)
In all, about 340,000 compounds went through this assay and about 170 (0.05%) were called active. Inconclusive means that the source gave no clear call. Such entries were picked first, then a sample of the others. Calls follow the shape of the dose curve; as a rule, active = well fitted inhibition curve with a large enough effect in the signal ratio, with a control signal flat (not every such curve was filed as active); inconclusive = small, poorly fitted or top-dose-only effect, or effect the other way, or a change in a side signal; inactive = flat fitted curve, though single readings scatter; the % refers to the signal ratio. A potency beside an inconclusive call is a rough fit, not a confirmed value.

Test: qHTS Assay to Find Inhibitors of Chronic Active B-Cell Receptor Signaling;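 as to activity change, negative = inhibition: plate controls were basal doxycycline-induced cells for no effect and cells given 10 µM MG132 for full effect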
Details: ABC-DLBCL IkBa-CBG/CBR reporter, luminescence ratio (green luciferase fused to IkBa over red control in TMD8 lymphoma cells), 4 h; activity change, negative = inhibition: at 46.1 µM (top of the series)
Procedure, shortened: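 Cell line TMD8 (human ABC DLBCL), stably expressing tet-inducible CBG68-IkBa fusion and CBR; IMDM/0.5% FBS; cpd up to 46 uM; dox induction, 4 h, 37C/5% CO2; dual luminescence; green/red ratio; MG132 control.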
Potency is read from the fitted curve at half-maximal effect.

Row | SMILES | activity change, negative = inhibition | Potency
1 | O=C(/C=C/c1c(Cl)cccc1Cl)Nc1ccncc1 | inactive | 
2 | O=C(NCCCN1CCOCC1)c1c(O)c2cc(Br)cc(Br)c2[nH]c1=O | inactive | 
3 | Cc1cc(Br)ccc1OCCCCNCCO | inactive | 
4 | O=C(CSc1ccccc1)Nc1nnc(C2CC2)s1 | inconclusive: 10.2% | 
5 | Cc1ccc(C)c(OCCC(=O)OCC(=O)NC(=O)NCc2ccccc2)c1 |  | inconclusive: 7.31 µM [falling, single point]
6 | Cc1c(C(=O)NCCCN2CCCC2=O)oc2ccccc12 | inconclusive: 3.21% | 
7 | Cc1cc(C)c(-c2cc(NC(=O)COC(=O)c3ccc(CO)cc3)n(-c3ccccc3)n2)cc1C | inconclusive: 8.35% | 
8 | Cc1ccc(CNC(=O)CC(C)S(=O)(=O)c2ccc3c(c2)NC(=O)C(C)S3)cc1 (stereo not drawn) | inconclusive: 6.8% | 
9 | CCOC(=O)c1nn(-c2ccccc2)c(=O)c2c(NC(C)=O)scc12 |  | inconclusive: 1.26 µM [rising, partial curve, poor fit]
10 | O=C(Cc1ccccc1)Nc1ccccc1C(=O)NCC1CCCO1 (stereo not drawn) | inconclusive: 0.983% | 
11 | Cc1cccc(C(=O)NNC(=O)c2ccc(F)cc2)c1 |  | inconclusive: 20.6 µM [falling, single point]
12 | CC(C)NC(=O)c1[nH]nc2c1CCc1ccccc1-2 | inconclusive: -9.48% | 
13 | Cn1c(=O)[nH]c2nc[nH]c2c1=O | inconclusive: 5.79% | 
14 | CC(C)NC(=O)N(C)C[C@H]1Oc2ccc(NC(=O)CCC(F)(F)F)cc2C(=O)N([C@H](C)CO)C[C@@H]1C | inconclusive: 1.54% | 
15 | OC1(c2ccc3ccccc3c2)CCN(Cc2ccccc2)C1 (stereo not drawn) | inconclusive: 8.05% | 
16 | O=C(N/N=C/c1cccnc1)c1cccs1 |  | inconclusive: 20 µM [falling, single point]
17 | COc1cc(-c2nnc(-c3cc(OC)c(OC)c(OC)c3)o2)cc(OC)c1OC | inactive | 
18 | Nn1cnnc1N/N=C/c1ccc(F)cc1 |  | inconclusive: 35.5 µM [falling, single point]
19 | CC1CCCN(CCCNC(=O)c2coc3nc4ccccc4nc23)C1 (stereo not drawn) |  | inconclusive: 15.8 µM [falling, partial curve]
20 | Cn1c(=NC(=O)COc2ccccc2)sc2ccccc21 |  | inconclusive: 10 µM [falling, partial curve]
21 | CC(C)Nc1nc(-c2cccnc2)nc(-c2ccc(Cl)cc2)c1C#N | inconclusive: -1.3% | 
22 | COc1ccccc1NC(=O)CCn1c(=O)sc2ccccc21 |  | inconclusive: 6.51 µM [falling, single point]
23 | CCC(=O)Nc1cc(C)c(NC(=O)c2ccco2)cn1 | inactive | 

Record cards, from the list above:
O=C(Cc1ccccc1)Nc1ccccc1C(=O)NCC1CCCO1 (stereo not drawn) is listed with activity change, negative = inhibition: inconclusive: 0.983%
Cc1ccc(CNC(=O)CC(C)S(=O)(=O)c2ccc3c(c2)NC(=O)C(C)S3)cc1 (stereo not drawn) is listed with activity change, negative = inhibition: inconclusive: 6.8%
